Results as given in doi:10.1101/134981.
These are yes or no findings as the source states them, for the method shown. Some binding calls cover weakened binding; strength is not graded here.

Assays:
ZBTB18 wild-type (human) = ZBTB18 wild-type (human) (UniProt Q99592); experiment: two-hybrid
ZBTB18 A502T (human) = ZBTB18 A502T (human) (UniProt Q99592); experiment: two-hybrid

CTBP2 (from UniProt P56545 1-445)
binding (ZBTB18 wild-type (human)): binds
binding (ZBTB18 A502T (human)): no binding
